# Assay results reported in US5840740A, “Aminosterol compounds and a method of treating infection using the aminosterol compounds” (priority 1995, dated 1998).
# At least one structure is not confirmed: it was looked up by name or label, or the drawing left a doubt.
# Test system: Xenopus tadpole
# Conditions: 10 μg/mL
compound,measurement,setting,value
CC(C)CCC[C@@H](C)[C@H]1CC[C@H]2[C@@H]3[C@H](O)C[C@H]4C[C@@H](N)CC[C@]4(C)[C@H]3CC[C@]12C [Compound 1364],TB (tissue breakdown),,-
same,Tox (lethality at 2 hrs),2 hrs,+
